{"source": "patent US20230399298A1", "about": "(priority 2020, published 2023)", "details": "donepezil composition, SD rats, intramuscular, 4 mg/kg of donepezil"}
{"smiles": "COc1cc2c(cc1OC)C(=O)C(CC1CCN(Cc3ccccc3)CC1)C2", "note": "(stereo not shown) [D (Donepezil), 2-((1-benzylpiperidin-4-yl)methyl)-5,6-dimethoxy-2,3-hydro-1H-inden-1-one]", "values": [{"measurement": "release of the drug was terminated", "result": "≤ 3", "unit": "days"}]}
